# US11786485B2, “Methods and compositions for treating advanced stage non-small cell lung cancer” (Golden Biotechnology Corporation, priority 2016, dated 2023)
# For at least one compound, name, drawing or mass did not settle the structure.
# System: Ras
# Experiment: Ras processing in lung cancer cells
# Type: cell-based
# Conditions: dose-dependent, P<0.01, competed by farnesyl pyrophosphate
structure (smiles),measurement,value
"COC1=C(OC)C(O)C(C/C=C(\C)CC/C=C(\C)CCC=C(C)C)C(C)C1=O (stereo not shown) [Compound 1, 4-hydroxy-2,3-dimethoxy-6-methyl-5-(3,7,11-trimethyldodeca-2,6,10-trienyl)cyclohex-2-enone]",ratio of unprocessed to processed Ras,significantly enhanced
